Results: publication PMC6546395
Results are given in words; binding and its absence hold for the method and conditions named. Some binding calls cover weakened binding; strength is not graded here.

The chains behind the UniProt entries cited, without tags or fusion partners. Where a name states a change or a piece, a line headed by the entry shows the natural chain unless it says otherwise.
UniProt Q02732: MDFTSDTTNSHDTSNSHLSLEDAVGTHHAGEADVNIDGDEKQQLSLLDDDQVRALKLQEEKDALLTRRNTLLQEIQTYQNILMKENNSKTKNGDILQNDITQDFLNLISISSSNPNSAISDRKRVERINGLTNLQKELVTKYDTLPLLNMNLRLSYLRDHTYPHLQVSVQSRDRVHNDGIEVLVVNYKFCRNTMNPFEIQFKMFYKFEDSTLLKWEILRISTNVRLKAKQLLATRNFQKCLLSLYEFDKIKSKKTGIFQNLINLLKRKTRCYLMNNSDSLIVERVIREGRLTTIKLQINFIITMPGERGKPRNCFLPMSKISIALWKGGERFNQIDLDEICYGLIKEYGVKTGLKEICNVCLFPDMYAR

Assays:
[1] = molecular target: T1, Sli15/Ipl1 core chromosomal passenger complex (S. cerevisiae) (UniProt P38283+P38991); assay: pull-down; Sli15-2xStrep-HA-6xHis/Ipl1 immobilised on Strep-Tactin Superflow agarose, 2-fold molar excess of the partners; 50 mM NaH2PO4 pH 8, 120 mM NaCl, 5% glycerol, 4°C, 1 hr; SDS-PAGE and Coomassie; both purified
T1 sequence 1: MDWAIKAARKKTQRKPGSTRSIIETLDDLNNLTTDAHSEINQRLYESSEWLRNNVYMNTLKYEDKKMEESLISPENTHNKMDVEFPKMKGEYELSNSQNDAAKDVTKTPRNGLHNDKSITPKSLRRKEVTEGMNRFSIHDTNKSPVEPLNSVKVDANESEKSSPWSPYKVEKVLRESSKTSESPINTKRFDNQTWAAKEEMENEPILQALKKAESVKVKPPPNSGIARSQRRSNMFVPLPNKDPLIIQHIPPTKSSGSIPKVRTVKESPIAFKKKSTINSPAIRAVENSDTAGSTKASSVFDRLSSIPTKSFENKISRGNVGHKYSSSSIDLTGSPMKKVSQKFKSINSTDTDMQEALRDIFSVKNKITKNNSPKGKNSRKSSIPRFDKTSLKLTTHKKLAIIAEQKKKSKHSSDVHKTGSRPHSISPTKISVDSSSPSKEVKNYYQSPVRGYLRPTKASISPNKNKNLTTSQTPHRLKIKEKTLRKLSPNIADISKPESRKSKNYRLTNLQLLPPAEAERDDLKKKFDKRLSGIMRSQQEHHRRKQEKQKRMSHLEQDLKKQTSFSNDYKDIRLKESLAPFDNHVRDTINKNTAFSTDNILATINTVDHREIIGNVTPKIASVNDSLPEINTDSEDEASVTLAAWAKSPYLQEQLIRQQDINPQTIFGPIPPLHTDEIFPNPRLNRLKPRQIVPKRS
T1 sequence 2: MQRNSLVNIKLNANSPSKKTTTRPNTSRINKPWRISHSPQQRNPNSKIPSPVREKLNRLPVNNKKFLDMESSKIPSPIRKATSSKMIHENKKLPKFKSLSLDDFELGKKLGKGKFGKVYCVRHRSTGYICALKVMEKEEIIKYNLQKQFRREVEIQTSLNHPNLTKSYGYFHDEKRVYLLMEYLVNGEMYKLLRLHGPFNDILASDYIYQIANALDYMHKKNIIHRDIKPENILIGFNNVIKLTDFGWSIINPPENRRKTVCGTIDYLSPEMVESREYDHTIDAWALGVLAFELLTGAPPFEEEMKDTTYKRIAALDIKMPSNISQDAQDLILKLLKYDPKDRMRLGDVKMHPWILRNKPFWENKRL

Mhf2 (S. cerevisiae) = Mhf2 (S. cerevisiae) (UniProt Q3E829); assay: co-purification of co-expressed subunits; subunits expressed together in E. coli (pETDuet-1 in BL21 (DE3); Ame1-6xHis/Okp1 as in Hornung et al., 2014); purified by the tag of one subunit (Ni-NTA or Strep-Tactin); Coomassie gel

| binding [1] | binding (Mhf2 (S. cerevisiae)) | Substance |
| --- | --- | --- |
| no binding (tested: 2-fold molar excess) | – | Ctf19ΔC/Mcm21 (from UniProt Q02732 1-269; Q06675 1-368) (complex) |
| – | binds | Mhf1 (from UniProt Q3E835 1-90) |
